The campaign covered roughly 2,800 compounds. Fewer than 10 were called active. Roughly 7% stayed inconclusive and do not appear here. Calls follow the shape of the dose curve; as a rule, active = well fitted inhibition curve with a large enough effect; inconclusive = small, poorly fitted or top-dose-only effect; inactive = no such curve, though single readings can be large or run the other way. This is one part of the list.

The chains behind the UniProt entries cited, without tags or fusion partners. Where a name states a change or a piece, a line headed by the entry shows the natural chain unless it says otherwise.
UniProt C7C422: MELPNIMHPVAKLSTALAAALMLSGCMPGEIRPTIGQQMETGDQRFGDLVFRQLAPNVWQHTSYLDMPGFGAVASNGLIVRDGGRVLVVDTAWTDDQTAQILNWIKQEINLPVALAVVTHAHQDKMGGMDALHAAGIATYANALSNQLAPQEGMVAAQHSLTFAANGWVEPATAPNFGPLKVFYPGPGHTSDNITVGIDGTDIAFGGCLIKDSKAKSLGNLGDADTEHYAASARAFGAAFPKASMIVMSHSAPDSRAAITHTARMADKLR

The experiment deals with Metallo-beta-lactamase type 2 (Klebsiella pneumoniae) (UniProt C7C422). The experiment in a line: qHTS to identify inhibitors of the New Delhi Metallo-beta-lactamase (NDM): Nitrocefin screen against the machine-based learning selections. Also: % of control where 0% means no effect. The following applies: NDM-1 enzyme, nitrocefin hydrolysis, absorbance 485 nm; activity, negative = inhibition: at the top concentration. The source says:
Assay Submitter (PI): James Inglese Ph.D., Patricia Dranchak Ph.D., Mahesh Aitha Ph.D. Assay Development and Screening Technology Laboratory (ADST) National Center for Advancing Translational Sciences (NCATS), Rockville, MD National Institute of Health (NIH), Bethesda, Maryland The metallo-beta-lactamases (MBL) are a main antibiotic resistance mechanism evolved by bacteria. There is an urgent clinical need for MBL inhibitors to mitigate this growing threat. To support a machine-based learning study, qHTS has been used to experimentally test inhibitors identified by prediction tools.
PROTOCOL TABLE (as described by Inglese et al., 2007) SEQUENCE No. (e.g., 1, 2, 3, etc.); […] (e.g., enzyme, Incubation, Reagent, etc.); VALUE; DESCRIPTION Primary Screen 1; NDM-1; 4 uL of 3 nM enzyme [2 nM final] in 50 mM HEPES (pH 7.0), 1 uM […], 0.01% Tween20; Use BioRaptr to dispense into two sets of Aurora black, clear bottom high base 1536-well plates 2; Compounds; 23 nL; Use Pin Tool (Wako) to transfer DMSO control and library compounds in DMSO 3; Incubate; >30 min 4a; Reagent; 2 uL of 50 uM nitrocefin [16.7 uM final] to one set of assay plates 4b; Reagent; 2 uL of 150 uM meropenem [50 uM final] to second set of assay plates 5a; Incubate; 15 min 5b; Incubate; 30 min 6a; Detector; Absorbance at 485 nm (bandwidth = 5 nm, 25 flashes/well) on Tecan Infinity 6b; Detector; Absorbance at 300 nm (bandwidth = 5 nm, 25 flashes/well) on Tecan Infinity NOTES (numbers refer to sequence above) 1; Column 1 of each plate received assay buffer without enzyme and columns 2-48 received enzyme for a final assay concentration of 2 nM. 2; Control plate contained DMSO in columns 1, 2, 3, and 4. 3; Compound interaction with enzyme. 4; Nitrocefin and meropenem substrates were prepared in the same assay buffer as step 1 for a final assay concentration of 16.7 uM and 50 uM, respectively, and added to all wells across respective sets of assay plates. 5; Default reader settings were applied for absorbance read at 485 nm (nitrocefin) or 300 nm (meropenem), bandwidth = 5 nm, 25 flashes/well. References: Inglese J, Shamu CE, Guy RK. 2007. Reporting data from high-throughput screening of small-molecule libraries. Nat Chem Biol. doi:10.1038/nchembio0807-438 Yasgar A, Shinn P, Jadhav A, Auld D, Michael S, Zheng W, Austin CP, Inglese J, Simeonov A. 2008. Compound Management for Quantitative High-Throughput Screening. J Lab Autom 13:79 - 89. doi:10.1016/j.jala.2007.12.004
A general note: In qHTS, concentration-response curves come from the screen itself.
Take `O=C(Nc1cccs1)O[C@H]1COCCN(c2nc3ccccc3o2)C1`: the “activity, negative = inhibition” value was inactive: -1.23% [at 57.5 µM].
`CC[C@H]1CN(C(=O)C(C)(C)C)CC[C@H]1CC(=O)NCc1cccnc1`: the “activity, negative = inhibition” value is inactive: 4.25% [at 57.5 µM].
As for `Fc1ccc(CN2CC[C@H](c3nc4cc(Cl)ccc4o3)C2)cc1F`, the figure is inactive: 2.43% [at 57.5 µM]; as for `CCN(Cc1nc(C)no1)C(=O)c1cc(COc2ccccc2F)[nH]n1`, inactive: -1.16%; as for `Cc1noc(C)c1CCC(=O)N1CCN(Cc2ccccc2)CC(O)C1` (configuration not stated), inactive: -4.75%.
As for `CCC(=O)N(C1CCOCC1)C1CCN(S(=O)(=O)c2ccc(C)cc2C)CC1`, the figure is inactive: 5.91%.
As for `CC(C)c1noc(CN(C)C(=O)CC2C(=O)NCCN2Cc2ccoc2)n1` (configuration not stated), the figure is inactive: 1.66%; as for `CN1CCN(c2ccc(C(=O)N[C@H](c3ccccn3)C3CC(O)C3)cc2)CC1` (some centres not stated), inactive: -4%; as for `Cc1nn(CCC#N)c(C)c1[C@@H]1C=C[C@@H](NC(=O)Nc2ccc(Cl)cc2)C1`, inactive: -9.39% [at 57.5 µM].
Regarding `CCCNC(=O)NC[C@H]1O[C@@H]2C[C@@H](CC(=O)N3CCC(F)(F)C3)O[C@@H]2[C@@H]1O`, the “activity, negative = inhibition” value was inactive: 3.53% [at 57.5 µM].
Next, `CCO[C@H]1CN(C(=O)c2cccnc2SCCc2ccccc2)C[C@@H]1O`: inactive: 72.9%.
Next, `COCCNS(=O)(=O)c1cc(C(=O)O)cc(-c2ccc(OC)c(F)c2)c1`: inactive: -0.8%.
As for `CN(Cc1ccccc1)Cc1cc(CC2(NCc3cccs3)COC2)no1`, the figure is inactive: -7.06% [at 57.5 µM]; as for `CC1CCC(NC(=O)C2CCN(C(=O)c3ncn4c3COC(c3ccc(Cl)cc3)C4)CC2)CC1` (configuration not stated), inactive: -2.86%.
As for `COCCN1CCCC2(CCN(C(=O)c3ccccc3)C2)C1` (configuration not stated), the “activity, negative = inhibition” value was inactive: -3.5%.
As for `COc1ccc(Cl)cc1-c1ccc2c(c1)C(=O)N1CCN(C(=O)c3ccc(N(C)C)cc3)C[C@@H]1C(=O)N2`, the figure is inactive: -0.119%.
Turning to `COc1ccc(C(=O)N2CCC(c3nn(-c4ccccc4)c(=O)[nH]3)CC2)cc1`, the “activity, negative = inhibition” value is inactive: 3.64%.
On to `COCCNC(=O)c1ccc(OC2CCN(S(C)(=O)=O)CC2)c(Cl)c1`, for which the “activity, negative = inhibition” value was inactive: 2.62%.
Next, `CCn1ccc(C(=O)N2CC(c3nnc(-c4ccc(C)cc4)o3)C3(CCOCC3)C2)n1` (configuration not stated): inactive: 5.1%.
As for `Cc1nnnn1CC(=O)NCc1cccnc1N(C)CCc1ccccn1`, the figure is inactive: -1.64%; as for `COc1cccc(Nc2cc3c(cn2)CN(Cc2ccncc2)CCN3)c1`, inactive: 5% [at 57.5 µM]; as for `CC(C)C(=O)Nc1ccc([C@H]2OCC(=O)N(Cc3ccccc3)[C@@H]2CO)cc1`, inactive: -3.52% [at 57.5 µM].
As to `OC(c1cccc(C(F)(F)F)c1)c1nc(Nc2ccncc2)n[nH]1` (configuration not stated), the “activity, negative = inhibition” value was inactive: 4.24% [at 57.5 µM].
As for `O=C(Cc1c[nH]c2ncc(-c3cccnc3)cc12)NCCc1ccccc1`, the figure is inactive: -26.8% [at 57.5 µM]; as for `CC1(C(=O)NCCc2ccccn2)CCc2cnc(NCc3ccccc3)nc21` (configuration not stated), inactive: -0.0818% [at 57.5 µM]; as for `CC(C)(O)CCc1ccc(C(=O)NCCSc2ccccn2)cc1`, inactive: 0.0009%.
Next, `O=C(Cc1ccccc1Cl)N1CCC(Cc2nc(-c3ccc(F)cc3)no2)CC1`: inactive: 0.542%; `CCNc1ncc(C(=O)NC2CC(c3nnc(CO)n3CC)C2)cn1` (configuration not stated): inactive: -0.945%.
Next, `OC[C@]12CCCN[C@@H]1CCN(Cc1cccc(-c3ccccn3)c1)C2`: inactive: -8.88%.
Take `CN1[C@@H](CCC(=O)N2CCN(c3ccccc3)CC2)CNC(=O)[C@@H]2[C@H]1CCN2Cc1cccc(Cl)c1`: the “activity, negative = inhibition” value was inactive: -0.988%.
Next, `C[C@@H](NC(=O)Cc1ccccc1)c1onc(-c2ccc(Cl)cc2)c1C(=O)O`: inactive: -9.11% [at 57.5 µM]; `NC(=O)c1cccc(-c2n[nH]c3c2CC(=O)N(CC2CCOCC2)C3)c1`: inactive: -9.85% [at 57.5 µM].
Next, `COc1ccccc1-c1cnc(Nc2cccc(N[S+](C)(=O)[O-])c2)c2c1CCO2`: inactive: -2.84% [at 57.5 µM]; `COc1ccc(C(=O)N2CC[C@@H](CC(=O)O)[C@@H](CCN3C[C@@H]4C[C@H](C3)c3cccc(=O)n3C4)C2)cc1`: inactive: -12.6%.
As for `COc1ccc(NC(=O)O[C@@H]2CC[C@]3(C)C(CC[C@@H](O)[C@H]3CC(=O)NCc3ccc4c(c3)OCO4)[C@]2(C)CO)cc1` (some centres not stated), the figure is inactive: -2.57%; as for `C=CCN1CC2(CCC1=O)CCN(CC1CCCS(=O)(=O)C1)CC2` (configuration not stated), inactive: -5.44%; as for `O=c1cc(-c2ccccn2)oc2c(NCc3ccccc3)nccc12`, inactive: 5.89% [at 57.5 µM].
In the case of `C[C@H]1[C@@H]2[C@@H](O)[C@H]([C@H](C)C(=O)N3CCCC3)CC[C@@]2(C)CC[C@@H]1NC(=O)CC(C)(C)C`, the “activity, negative = inhibition” value was inactive: -4.1% [at 57.5 µM].
Next, `OCC1(Cc2ccc(F)cc2F)CCCN(c2cnc3ccccc3n2)C1` (configuration not stated): inactive: -5.51%; `CC(C)c1nnc(C2CN(C(=O)c3ccc(F)c(F)c3)CC23CCOCC3)o1` (configuration not stated): inactive: -3%; `CN[C@@H](CC(C)C)C(=O)N[C@H]1C[C@@](O)(C(=O)N[C@H](Cc2c[nH]c3ccccc23)C(N)=O)C[C@@H](O)[C@@H]1O`: inactive: -4.28%.
Next, `CC1(CNC(=O)c2ccc3c(c2)OCO3)CCOCC1`: inactive: 1.78%.
For `O=C(OCc1ccccc1)N1CCC2(C1)C(=NC1CCCC1)NC(=O)N2c1cccnc1` (configuration not stated), the “activity, negative = inhibition” value was inactive: 6.13%.
As for `Cc1ccccc1C(=O)N1CCCN(c2cc(-c3ccc(Cl)cc3)[nH]n2)CC1`, the figure is inactive: 0.61%; as for `O=C(NCCc1ccccc1)C1CC(=O)N(c2n[nH]c3cccc(F)c23)C1` (configuration not stated), inactive: 0.403%; as for `COCCNC(=O)C[C@@H]1C[C@H]2O[C@H](CNC3CCCCC3)[C@@H](O)[C@H]2O1`, inactive: 0.534% [at 57.5 µM].
As for `Cc1ccsc1-c1[nH]nc2ncc(-c3ccc(CO)cc3)nc12`, the figure is inactive: -2.91% [at 57.5 µM].

(Values after PubChem BioAssay AID1794844 (National Center for Advancing Translational Sciences (NCATS), 2023).)
